PubChem BioAssay AID1259315 – Drosophila RNAi Screening Center – 2017

Screen: 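Fly genes whose loss alters cell survival under toxic zinc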 (primary screen)
System: Drosophila S2R+ cells
Reagents: long dsRNA against Drosophila genes
Timing: 5 days (4 days knock-down, then 1 day with zinc)
Conditions: zinc chloride added to 15 mM final for 1 day
Read-out: 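Luminescent measure of total cellular ATP as a survival proxy, read after 4 days of knock-down plus 1 day in 15 mM zinc chloride; z-score averaged across two replicate plates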
Scale: mean ATP z-score: higher = more ATP, more cells surviving zinc
Active means: 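Hit when the mean ATP z-score exceeds 1.5 or falls below -1.5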
The deposit covers 418 reagents; below is a part drawn at random. 17 of them (4.1%) were called active. 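z-scores average two replicate plates; all hits raised ATP and none lowered it.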 Reagents against one gene are numbered here. Not given: the amount of reagent.

Depletion of Lamp1 #1 resulted in: mean ATP z-score -0.312; inactive.
For Lamp1 #2, the entry reads mean ATP z-score -0.163; inactive.
With knock-down of Lamp1 #3 the results were mean ATP z-score -0.282; inactive.
For CtsL1 #1, the values are mean ATP z-score -0.494; inactive.
CtsL1 #2 gave mean ATP z-score -0.358; inactive.
CtsL1 #3 gave mean ATP z-score -0.42; inactive.
Against Vha68-1 #1, the values are mean ATP z-score -0.142; inactive.
Silencing of Vha68-1 #2 gave: mean ATP z-score -0.144; inactive.
Vha68-1 #3 scored mean ATP z-score -0.274; inactive.
Against Ids, the entry reads mean ATP z-score -0.449; inactive.
Coprox #1 scored mean ATP z-score -0.124; inactive.
Coprox #2 gave mean ATP z-score -0.243; inactive.
After knock-down of Pex16, the screen gave mean ATP z-score -0.187; inactive.
Wdr24 #1 showed mean ATP z-score 0.228; inactive.
Knock-down of Wdr24 #2 resulted in: mean ATP z-score -0.324; inactive.
Npc2g scored mean ATP z-score 0.738; inactive.
For Vps16B #1, the values are mean ATP z-score -0.219; inactive.
With knock-down of Vps16B #2, the record shows mean ATP z-score -0.269; inactive.
Vps16B #3 gave mean ATP z-score -0.195; inactive.
After knock-down of Sap-r #1 the results were mean ATP z-score -0.324; inactive.
With knock-down of Sap-r #2, the screen gave mean ATP z-score -0.383; inactive.
Naglu #1 scored mean ATP z-score -0.0463; inactive.
Naglu #2 scored mean ATP z-score -0.0384; inactive.
Vha16-5 #1 showed mean ATP z-score -0.259; inactive.
Against Vha16-5 #2 the deposit lists mean ATP z-score -0.0924; inactive.
With knock-down of Vha16-5 #3, the screen gave mean ATP z-score -0.148; inactive.
Npc2h gave mean ATP z-score -0.0308; inactive.
Vps36 #1 showed mean ATP z-score -0.0588; inactive.
Depletion of Vps36 #2 gave: mean ATP z-score -0.231; inactive.
Hgsnat #1 gave mean ATP z-score -0.348; inactive.
For Hgsnat #2, the values are mean ATP z-score -0.235; inactive.
Knock-down of Hgsnat #3 resulted in: mean ATP z-score -0.301; inactive.
Knock-down of LManII resulted in: mean ATP z-score -0.201; inactive.
After knock-down of Abcd1 #1 the results were mean ATP z-score 0.328; inactive.
Depletion of Abcd1 #2 gave: mean ATP z-score -0.138; inactive.
Knock-down of fdl #1 resulted in: mean ATP z-score -0.115; inactive.
Against fdl #2 the deposit lists mean ATP z-score -0.295; inactive.
For CG13084, the values are mean ATP z-score -0.709; inactive.
For cm, the entry reads mean ATP z-score 0.0655; inactive.
Silencing of CG6508 gave: mean ATP z-score 0.0309; inactive.
Against CG12268 #1, the values are mean ATP z-score 0.346; inactive.
For CG12268 #2, the entry reads mean ATP z-score -0.118; inactive.
Npc1b #1 scored mean ATP z-score -0.21; inactive.
Against Npc1b #2 the deposit lists mean ATP z-score -0.29; inactive.
Knock-down of Npc1b #3 gave: mean ATP z-score -0.353; inactive.
Knock-down of Acox3 #1 came out at: mean ATP z-score -0.278; inactive.
Knock-down of Acox3 #2 came out at: mean ATP z-score -0.253; inactive.

Entries listed so far whose target name starts with W or w:
Wdr24 #1 | mean ATP z-score = 0.228; Outcome = inactive
Wdr24 #2 | mean ATP z-score = -0.324; Outcome = inactive
